In the supplement of paper PMC10849652:
The other results are listed elsewhere or left out.

Sequences of proteins named here, by UniProt entry; tags and fusion partners are left off. A change or cut given only in a name is not applied to a line headed by its entry.
UniProt P05161, whole entry, looked up: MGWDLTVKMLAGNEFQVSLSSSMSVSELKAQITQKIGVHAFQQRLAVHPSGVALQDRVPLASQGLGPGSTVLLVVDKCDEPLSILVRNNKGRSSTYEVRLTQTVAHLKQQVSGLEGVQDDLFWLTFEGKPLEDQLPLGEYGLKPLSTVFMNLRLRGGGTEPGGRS
UniProt Q8NFY9: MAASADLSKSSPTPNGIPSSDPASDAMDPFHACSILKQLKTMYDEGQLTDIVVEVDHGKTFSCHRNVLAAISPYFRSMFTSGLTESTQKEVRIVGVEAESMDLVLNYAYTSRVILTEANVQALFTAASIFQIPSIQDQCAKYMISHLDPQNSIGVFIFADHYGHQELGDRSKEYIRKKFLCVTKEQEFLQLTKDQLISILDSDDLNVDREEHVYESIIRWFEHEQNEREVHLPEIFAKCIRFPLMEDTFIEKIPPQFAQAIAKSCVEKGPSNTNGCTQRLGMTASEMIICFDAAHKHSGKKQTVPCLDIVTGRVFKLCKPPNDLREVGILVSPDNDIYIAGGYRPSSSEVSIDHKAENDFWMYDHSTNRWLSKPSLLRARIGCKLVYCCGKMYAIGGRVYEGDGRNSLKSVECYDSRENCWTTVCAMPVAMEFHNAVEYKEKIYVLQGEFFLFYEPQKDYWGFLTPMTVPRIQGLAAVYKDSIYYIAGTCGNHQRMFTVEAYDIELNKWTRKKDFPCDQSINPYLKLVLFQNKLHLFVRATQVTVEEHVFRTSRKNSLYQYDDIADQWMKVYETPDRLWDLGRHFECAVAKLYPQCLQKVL
UniProt P53990, whole entry, looked up: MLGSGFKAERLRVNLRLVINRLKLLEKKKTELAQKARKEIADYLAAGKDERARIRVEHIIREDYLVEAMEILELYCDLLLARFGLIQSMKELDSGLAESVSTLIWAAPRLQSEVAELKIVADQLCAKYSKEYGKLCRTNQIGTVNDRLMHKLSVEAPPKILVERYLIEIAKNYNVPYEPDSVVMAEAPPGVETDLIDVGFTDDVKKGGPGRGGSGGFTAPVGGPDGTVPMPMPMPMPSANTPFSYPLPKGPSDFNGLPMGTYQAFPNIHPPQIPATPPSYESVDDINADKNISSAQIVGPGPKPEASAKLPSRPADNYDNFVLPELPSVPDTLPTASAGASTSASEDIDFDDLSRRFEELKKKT
UniProt Q8WZA9: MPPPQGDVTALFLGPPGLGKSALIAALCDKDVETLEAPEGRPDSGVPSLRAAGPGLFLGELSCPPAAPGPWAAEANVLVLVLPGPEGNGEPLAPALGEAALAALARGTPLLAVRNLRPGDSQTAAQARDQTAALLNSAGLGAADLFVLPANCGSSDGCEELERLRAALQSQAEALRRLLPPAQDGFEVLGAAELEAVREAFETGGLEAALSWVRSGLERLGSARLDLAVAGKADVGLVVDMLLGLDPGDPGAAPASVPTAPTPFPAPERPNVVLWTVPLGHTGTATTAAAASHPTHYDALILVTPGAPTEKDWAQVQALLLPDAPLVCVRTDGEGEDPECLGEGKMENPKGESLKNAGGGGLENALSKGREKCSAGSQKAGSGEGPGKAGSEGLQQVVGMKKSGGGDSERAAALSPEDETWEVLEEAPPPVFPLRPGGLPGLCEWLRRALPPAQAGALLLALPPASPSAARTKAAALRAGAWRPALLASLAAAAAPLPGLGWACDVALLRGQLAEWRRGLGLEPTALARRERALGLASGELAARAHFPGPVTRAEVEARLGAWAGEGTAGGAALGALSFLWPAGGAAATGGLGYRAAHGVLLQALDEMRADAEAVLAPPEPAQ
UniProt Q92551: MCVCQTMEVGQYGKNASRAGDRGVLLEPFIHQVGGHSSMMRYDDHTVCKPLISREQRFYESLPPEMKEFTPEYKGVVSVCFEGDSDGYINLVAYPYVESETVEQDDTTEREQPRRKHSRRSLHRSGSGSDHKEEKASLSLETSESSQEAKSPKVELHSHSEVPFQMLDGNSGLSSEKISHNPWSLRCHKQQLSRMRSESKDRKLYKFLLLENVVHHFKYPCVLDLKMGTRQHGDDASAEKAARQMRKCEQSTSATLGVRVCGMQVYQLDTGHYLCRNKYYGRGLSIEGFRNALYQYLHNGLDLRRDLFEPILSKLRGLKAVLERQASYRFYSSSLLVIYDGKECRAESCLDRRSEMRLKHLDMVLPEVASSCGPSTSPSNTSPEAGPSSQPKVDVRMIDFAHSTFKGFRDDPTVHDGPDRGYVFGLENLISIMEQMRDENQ
UniProt Q15046, whole entry, looked up: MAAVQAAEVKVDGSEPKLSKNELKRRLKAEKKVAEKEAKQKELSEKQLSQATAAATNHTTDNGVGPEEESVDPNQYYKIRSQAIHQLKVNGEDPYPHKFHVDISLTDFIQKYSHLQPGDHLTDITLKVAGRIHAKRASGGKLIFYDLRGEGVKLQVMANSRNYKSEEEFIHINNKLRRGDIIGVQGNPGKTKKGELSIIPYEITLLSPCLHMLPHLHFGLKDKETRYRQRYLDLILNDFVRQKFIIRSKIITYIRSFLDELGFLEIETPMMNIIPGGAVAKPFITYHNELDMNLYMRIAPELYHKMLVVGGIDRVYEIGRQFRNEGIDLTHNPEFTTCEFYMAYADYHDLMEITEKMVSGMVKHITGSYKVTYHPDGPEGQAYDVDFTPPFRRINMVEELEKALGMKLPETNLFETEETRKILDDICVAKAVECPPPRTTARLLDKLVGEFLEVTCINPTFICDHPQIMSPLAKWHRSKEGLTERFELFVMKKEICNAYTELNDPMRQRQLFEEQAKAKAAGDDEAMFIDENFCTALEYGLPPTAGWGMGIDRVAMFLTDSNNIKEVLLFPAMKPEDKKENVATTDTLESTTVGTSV
UniProt Q7LBC6: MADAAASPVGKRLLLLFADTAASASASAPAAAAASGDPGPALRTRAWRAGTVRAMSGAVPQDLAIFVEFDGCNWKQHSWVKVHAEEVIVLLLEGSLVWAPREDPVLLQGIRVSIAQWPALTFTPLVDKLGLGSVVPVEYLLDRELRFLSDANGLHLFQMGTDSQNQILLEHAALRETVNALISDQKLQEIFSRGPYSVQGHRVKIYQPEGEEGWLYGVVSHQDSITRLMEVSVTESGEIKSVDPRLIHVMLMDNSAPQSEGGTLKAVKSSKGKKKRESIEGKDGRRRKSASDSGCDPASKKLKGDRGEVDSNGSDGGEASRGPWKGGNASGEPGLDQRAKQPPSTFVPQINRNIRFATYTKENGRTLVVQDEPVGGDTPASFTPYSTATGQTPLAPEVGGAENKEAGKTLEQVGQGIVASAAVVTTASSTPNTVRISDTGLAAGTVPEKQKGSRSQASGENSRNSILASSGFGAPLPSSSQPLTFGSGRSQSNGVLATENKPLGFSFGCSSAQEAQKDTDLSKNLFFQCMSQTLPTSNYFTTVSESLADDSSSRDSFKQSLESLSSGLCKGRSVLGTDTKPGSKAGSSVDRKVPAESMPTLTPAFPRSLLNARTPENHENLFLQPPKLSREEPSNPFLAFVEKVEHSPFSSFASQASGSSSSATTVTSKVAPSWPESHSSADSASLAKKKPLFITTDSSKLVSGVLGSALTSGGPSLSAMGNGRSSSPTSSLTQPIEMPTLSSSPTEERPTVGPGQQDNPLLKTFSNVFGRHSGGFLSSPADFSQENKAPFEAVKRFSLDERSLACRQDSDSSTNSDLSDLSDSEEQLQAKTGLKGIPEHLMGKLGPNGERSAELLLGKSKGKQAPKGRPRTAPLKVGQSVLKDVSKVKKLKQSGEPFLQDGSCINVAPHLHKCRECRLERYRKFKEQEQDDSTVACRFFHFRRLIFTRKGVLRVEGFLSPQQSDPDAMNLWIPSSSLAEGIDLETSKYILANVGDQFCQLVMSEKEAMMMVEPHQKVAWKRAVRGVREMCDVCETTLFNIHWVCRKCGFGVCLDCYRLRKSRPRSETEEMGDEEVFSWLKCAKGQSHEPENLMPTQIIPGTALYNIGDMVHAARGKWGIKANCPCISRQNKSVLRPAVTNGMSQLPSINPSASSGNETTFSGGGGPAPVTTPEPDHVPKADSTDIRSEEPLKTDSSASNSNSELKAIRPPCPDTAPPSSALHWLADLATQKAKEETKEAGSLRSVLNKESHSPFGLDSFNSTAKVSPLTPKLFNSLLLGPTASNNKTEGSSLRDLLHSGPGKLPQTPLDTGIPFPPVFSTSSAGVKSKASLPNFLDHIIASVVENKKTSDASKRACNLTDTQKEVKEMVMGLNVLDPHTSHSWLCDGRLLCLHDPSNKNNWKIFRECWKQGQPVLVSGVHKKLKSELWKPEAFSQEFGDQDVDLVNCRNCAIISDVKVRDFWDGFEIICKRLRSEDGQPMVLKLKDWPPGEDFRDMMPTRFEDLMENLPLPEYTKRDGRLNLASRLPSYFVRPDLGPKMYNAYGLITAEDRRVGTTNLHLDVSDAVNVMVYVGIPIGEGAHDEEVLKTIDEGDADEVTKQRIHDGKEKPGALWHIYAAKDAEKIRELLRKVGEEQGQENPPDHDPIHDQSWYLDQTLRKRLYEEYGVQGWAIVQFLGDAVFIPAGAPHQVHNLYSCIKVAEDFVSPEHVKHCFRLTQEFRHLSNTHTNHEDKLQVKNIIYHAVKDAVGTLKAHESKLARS
UniProt Q68E01, whole entry, looked up: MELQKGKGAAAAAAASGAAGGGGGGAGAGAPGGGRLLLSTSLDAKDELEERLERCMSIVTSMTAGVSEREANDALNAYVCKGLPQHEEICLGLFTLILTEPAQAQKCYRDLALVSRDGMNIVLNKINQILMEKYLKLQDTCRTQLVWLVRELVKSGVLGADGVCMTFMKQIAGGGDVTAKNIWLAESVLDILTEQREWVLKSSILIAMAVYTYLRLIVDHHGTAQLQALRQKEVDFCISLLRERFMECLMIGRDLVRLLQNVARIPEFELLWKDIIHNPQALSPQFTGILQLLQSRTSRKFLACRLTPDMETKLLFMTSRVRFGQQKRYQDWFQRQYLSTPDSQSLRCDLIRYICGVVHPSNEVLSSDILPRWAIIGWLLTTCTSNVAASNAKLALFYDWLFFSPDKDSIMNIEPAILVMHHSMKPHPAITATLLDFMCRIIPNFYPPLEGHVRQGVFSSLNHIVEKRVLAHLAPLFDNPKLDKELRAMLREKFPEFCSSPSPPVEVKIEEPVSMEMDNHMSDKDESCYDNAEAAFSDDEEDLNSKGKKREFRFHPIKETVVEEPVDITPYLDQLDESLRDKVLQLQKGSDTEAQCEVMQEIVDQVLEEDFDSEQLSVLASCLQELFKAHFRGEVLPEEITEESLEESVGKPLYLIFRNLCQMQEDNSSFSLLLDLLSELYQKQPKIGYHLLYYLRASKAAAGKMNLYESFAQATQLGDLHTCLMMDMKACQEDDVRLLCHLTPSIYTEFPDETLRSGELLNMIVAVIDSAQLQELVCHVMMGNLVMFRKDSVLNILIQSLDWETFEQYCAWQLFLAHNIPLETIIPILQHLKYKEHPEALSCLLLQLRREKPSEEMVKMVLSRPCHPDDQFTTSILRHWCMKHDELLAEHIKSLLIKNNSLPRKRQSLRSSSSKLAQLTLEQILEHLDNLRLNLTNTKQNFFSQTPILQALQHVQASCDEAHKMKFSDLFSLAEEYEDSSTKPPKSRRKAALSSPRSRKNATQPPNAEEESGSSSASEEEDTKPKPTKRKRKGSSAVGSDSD
UniProt Q96J02: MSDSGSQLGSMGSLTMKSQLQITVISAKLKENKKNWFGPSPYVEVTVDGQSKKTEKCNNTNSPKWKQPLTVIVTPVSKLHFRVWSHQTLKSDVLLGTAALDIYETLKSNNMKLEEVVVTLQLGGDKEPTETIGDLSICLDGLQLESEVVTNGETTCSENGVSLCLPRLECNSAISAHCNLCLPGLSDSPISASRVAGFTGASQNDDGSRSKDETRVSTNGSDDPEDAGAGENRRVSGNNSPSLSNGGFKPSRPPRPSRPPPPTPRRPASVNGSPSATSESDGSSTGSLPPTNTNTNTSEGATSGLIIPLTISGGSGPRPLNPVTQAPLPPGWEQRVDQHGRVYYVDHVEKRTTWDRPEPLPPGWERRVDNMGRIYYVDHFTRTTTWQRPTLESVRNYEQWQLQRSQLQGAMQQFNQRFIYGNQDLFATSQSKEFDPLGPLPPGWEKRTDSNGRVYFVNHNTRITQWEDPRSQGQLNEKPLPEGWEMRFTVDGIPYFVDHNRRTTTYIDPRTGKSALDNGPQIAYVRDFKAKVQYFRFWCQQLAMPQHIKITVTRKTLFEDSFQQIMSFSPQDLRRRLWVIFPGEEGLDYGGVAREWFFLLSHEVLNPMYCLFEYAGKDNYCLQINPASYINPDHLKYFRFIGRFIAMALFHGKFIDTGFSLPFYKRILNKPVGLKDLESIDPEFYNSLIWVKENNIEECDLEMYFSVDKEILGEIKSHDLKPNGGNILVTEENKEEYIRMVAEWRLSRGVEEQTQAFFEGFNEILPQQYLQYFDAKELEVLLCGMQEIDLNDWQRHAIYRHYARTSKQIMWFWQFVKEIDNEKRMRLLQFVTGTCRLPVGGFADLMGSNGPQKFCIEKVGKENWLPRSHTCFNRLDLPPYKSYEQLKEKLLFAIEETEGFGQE

Assays:
Test in all cases: log2 fold change, soluble protein after heating vs DMSO (PISA); higher = thermal stabilisation; K562 lysate, 10 uM; active = over 0.2 and 3.5 SD of the protein, either way, in both replicates (recomputed)
vemurafenib = compound: CCCS(=O)(=O)Nc1ccc(F)c(C(=O)c2c[nH]c3ncc(-c4ccc(Cl)cc4)cc23)c1F [vemurafenib]
How it was run: (§1)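 Quantification was by TMTpro 16plex LC-MS/MS with equalised channel sums, applied to the supernatant after 21,000xg for 90 min. Samples were crude K562 extract at 1 mg/mL protein in PBS pH 7.4 with 1 mM MgCl2, treated with 10 μM compound for 30 min, heated for 3 min across 48°C-58°C, pooled and brought to 0.5% NP-40 at 4°C. Values are log-two fold changes in thermal stability relative to solvent controls, from duplicates.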

[1] = compound: CCCS(=O)(=O)Nc1ccc(F)c(C(=O)c2c[nH]c3ncc(Cl)cc23)c1F
How it was run: as §1

barasertib = compound: CCN(CCCOc1ccc2c(Nc3cc(CC(=O)Nc4cccc(F)c4)[nH]n3)ncnc2c1)CCOP(=O)(O)O [barasertib]
How it was run: as §1

[2] = compound: CC[C@@H]1C(=O)N(C)c2cnc(Nc3ccc(C(=O)NC4CCN(C)CC4)cc3OC)nc2N1C1CCCC1
How it was run: as §1

volasertib = compound: CC[C@@H]1C(=O)N(C)c2cnc(Nc3ccc(C(=O)N[C@H]4CC[C@H](N5CCN(CC6CC6)CC5)CC4)cc3OC)nc2N1C(C)C [volasertib]
How it was run: as §1

[3] = compound: CCn1c(C(=O)N(C2CC2)C2CC2)cc2c3c(ncn3C)c(Nc3cc(C)n(C)n3)nc21
How it was run: as §1

[4] = compound: CCn1cc(-c2ccnc3[nH]c(-c4cccc(CN(C)C)c4)cc23)c(-c2ccc(NC(=O)N(C)C)cc2)n1
How it was run: as §1

[5] = compound: CN1CCC(CNc2ccc3ncc(-c4cccc(OC(F)(F)F)c4)n3n2)CC1
How it was run: as §1

saracatinib = compound: CN1CCN(CCOc2cc(OC3CCOCC3)c3c(Nc4c(Cl)ccc5c4OCO5)ncnc3c2)CC1 [saracatinib]
How it was run: as §1

sotrastaurin = compound: CN1CCN(c2nc(C3=C(c4c[nH]c5ccccc45)C(=O)NC3=O)c3ccccc3n2)CC1 [sotrastaurin]
How it was run: as §1

alvocidib = compound: CN1CC[C@H](c2c(O)cc(O)c3c(=O)cc(-c4ccccc4Cl)oc23)[C@H](O)C1 [alvocidib]
How it was run: as §1

Tubastatin A = compound: CN1CCc2c(c3ccccc3n2Cc2ccc(C(=O)NO)cc2)C1 [Tubastatin A]
How it was run: as §1

[6] = compound: CNC(=O)C1=CC=CC=C1NC2=NC(=NC=C2Cl)NC3=C(C=C(C=C3)N4CCOCC4)OC
How it was run: as §1

defactinib = compound: CNC(=O)c1ccc(Nc2ncc(C(F)(F)F)c(NCc3nccnc3N(C)S(C)(=O)=O)n2)cc1 [defactinib]
How it was run: as §1

[7] = compound: CNc1nc(-c2ccc3c(N)n[nH]c3c2)cc(N2C[C@@H](C(=O)NC3CCCCC3)CC[C@H]2C)n1
How it was run: as §1

encorafenib = compound: COC(=O)N[C@@H](C)CNc1nccc(-c2cn(C(C)C)nc2-c2cc(Cl)cc(NS(C)(=O)=O)c2F)n1 [encorafenib]
How it was run: as §1

[8] = compound: COC(=O)[C@H](CCSC)NC(=O)C1=C(C=C(C=C1)NC[C@H](CS)N)C2=CC=CC=C2
How it was run: as §1

alisertib = compound: COc1cc(Nc2ncc3c(n2)-c2ccc(Cl)cc2C(c2c(F)cccc2OC)=NC3)ccc1C(=O)O [alisertib]
How it was run: as §1

[9] = compound: COc1cc2nc(-c3cc(F)ccc3O)nc(N[C@@H]3CNC[C@H]3C(C)(C)O)c2cc1OC
How it was run: as §1

gefitinib = compound: COc1cc2ncnc(Nc3ccc(F)c(Cl)c3)c2cc1OCCCN1CCOCC1 [gefitinib]
How it was run: as §1

Target	log2 fold change (vemurafenib)	log2 fold change [1]	log2 fold change (barasertib)	log2 fold change [2]	log2 fold change (volasertib)	log2 fold change [3]	log2 fold change [4]	log2 fold change [5]	log2 fold change (saracatinib)	log2 fold change (sotrastaurin)	log2 fold change (alvocidib)	log2 fold change (Tubastatin A)	log2 fold change [6]	log2 fold change (defactinib)	log2 fold change [7]	log2 fold change (encorafenib)	log2 fold change [8]	log2 fold change (alisertib)	log2 fold change [9]	log2 fold change (gefitinib)
ISG15 (UniProt P05161)	inactive: 0.016	inactive: 0.009	inactive: 0.015	inactive: 0.028	inactive: -0.019	inactive: -0.08	inactive: -0.163	inactive: 0.043	inactive: -0.007	inactive: 0.028	inactive: 0.047	inactive: 0.035	inactive: 0	inactive: 0.008	inactive: 0.001	inactive: -0.01	inactive: -0.019	inactive: 0.023	inactive: -0.058	inactive: 0.028
KBTBD8 (UniProt Q8NFY9)	inactive: 0.042	inactive: 0.017	inactive: 0.091	inactive: -0.006	inactive: -0.015	inactive: -0.03	inactive: 0.133	inactive: -0.03	inactive: 0.008	inactive: 0.038	inactive: -0.028	inactive: -0.046	inactive: 0.002	inactive: -0.007	inactive: 0.02	inactive: 0.03	inactive: 0.005	inactive: -0.028	inactive: 0.01	inactive: -0.001
JMJD4 (UniProt Q9H9V9)	inactive: 0.002	inactive: 0.017	inactive: -0.012	inactive: 0.028	inactive: 0.092	inactive: 0.152	inactive: -0.151	inactive: 0.045	inactive: 0.042	inactive: -0.056	inactive: -0.067	inactive: -0.08	inactive: 0.095	inactive: 0.143	inactive: 0.107	inactive: 0.005	inactive: 0.051	inactive: 0.048	inactive: 0.042	inactive: -0.08
IST1 (UniProt P53990)	inactive: 0	inactive: -0.01	inactive: -0.035	inactive: -0.002	inactive: -0.003	inactive: 0.033	inactive: 0.001	inactive: -0.001	inactive: -0.005	inactive: -0.033	inactive: 0.027	inactive: 0.041	inactive: 0.012	inactive: -0.009	inactive: -0.013	inactive: -0.002	inactive: 0	inactive: 0.033	inactive: 0.001	inactive: 0.044
IRGQ (UniProt Q8WZA9)	inactive: -0.003	inactive: 0.007	inactive: 0.084	inactive: 0.01	inactive: -0.011	inactive: -0.013	inactive: -0.025	inactive: 0.013	inactive: 0.044	inactive: -0.002	inactive: -0.018	inactive: 0.02	inactive: 0.012	inactive: 0.002	inactive: -0.026	inactive: 0.003	inactive: 0.02	inactive: 0.014	inactive: 0.011	inactive: -0.025
IPO4 isoform 2 (UniProt Q8TEX9)	inactive: 0.033	inactive: 0.026	inactive: 0.008	inactive: 0.004	inactive: -0.018	inactive: 0.009	inactive: -0.117	inactive: 0.038	inactive: -0.016	inactive: 0.018	inactive: -0.019	inactive: -0.009	inactive: 0.014	inactive: -0.009	inactive: 0.007	inactive: -0.014	inactive: -0.042	inactive: -0.007	inactive: -0.002	inactive: 0.014
IP6K1 (UniProt Q92551)	inactive: 0.013	inactive: 0.031	inactive: -0.172	inactive: -0.01	inactive: -0.114	inactive: 0.077	inactive: -0.113	inactive: 0	inactive: 0.126	inactive: 0.071	inactive: -0.097	inactive: -0.126	inactive: 0.088	inactive: -0.041	inactive: -0.038	inactive: 0	inactive: 0.235	inactive: -0.045	inactive: 0.068	inactive: -0.018
KARS1 (UniProt Q15046)	inactive: 0.003	inactive: -0.002	inactive: 0.002	inactive: -0.072	inactive: -0.026	inactive: 0.024	inactive: 0.046	inactive: -0.052	inactive: 0.004	inactive: 0.004	inactive: 0.027	inactive: -0.01	inactive: -0.037	inactive: 0	inactive: -0.035	inactive: -0.028	active: 0.379	inactive: 0.012	inactive: -0.011	inactive: -0.022
IVNS1ABP (UniProt Q9Y6Y0)	inactive: -0.016	inactive: 0.008	inactive: 0.088	inactive: -0.033	inactive: -0.058	inactive: 0.021	inactive: -0.01	inactive: 0.011	inactive: -0.011	inactive: 0.009	inactive: -0.037	inactive: -0.12	inactive: 0.02	inactive: 0.041	inactive: -0.021	inactive: -0.016	inactive: 0.098	inactive: 0.07	inactive: 0.002	inactive: 0.032
KDM3B (UniProt Q7LBC6)	inactive: -0.004	inactive: 0.037	inactive: 0.026	inactive: 0.013	inactive: -0.035	inactive: 0.002	inactive: -0.072	inactive: 0.056	inactive: 0.026	inactive: -0.013	inactive: -0.023	inactive: -0.036	inactive: 0.006	inactive: 0.024	inactive: 0.031	inactive: 0.052	inactive: -0.015	inactive: 0.02	inactive: 0.008	inactive: -0.006
KCTD3 (UniProt Q9Y597)	inactive: 0.009	inactive: 0.016	inactive: 0.078	inactive: 0.063	inactive: 0.024	inactive: -0.03	inactive: -0.005	inactive: 0.021	inactive: 0.004	inactive: 0.061	inactive: 0.007	inactive: 0.004	inactive: 0.033	inactive: -0.029	inactive: 0	inactive: -0.003	inactive: -0.051	inactive: 0.02	inactive: 0.01	inactive: 0.015
JMJD1C (UniProt Q15652)	inactive: 0.017	inactive: 0.057	inactive: -0.021	inactive: 0.039	inactive: -0.002	inactive: 0.037	inactive: 0.037	inactive: -0.002	inactive: 0.034	inactive: 0.008	inactive: -0.011	inactive: -0.011	inactive: 0.004	inactive: 0.037	inactive: 0.064	inactive: 0.067	inactive: -0.001	inactive: -0.005	inactive: 0.054	inactive: 0.034
IWS1 (UniProt Q96ST2)	inactive: -0.004	inactive: 0.027	inactive: -0.024	inactive: 0.112	inactive: -0.018	inactive: -0.013	inactive: 0.021	inactive: -0.007	inactive: 0.018	inactive: 0.003	inactive: -0.003	inactive: -0.03	inactive: 0.022	inactive: 0.005	inactive: 0.049	inactive: 0.04	inactive: -0.047	inactive: -0.004	inactive: -0.017	inactive: -0.008
INTS3 (UniProt Q68E01)	inactive: 0.038	inactive: 0.02	inactive: 0.05	inactive: -0.029	inactive: -0.017	inactive: -0.083	inactive: 0.072	inactive: -0.018	inactive: 0.049	inactive: 0.015	inactive: -0.003	inactive: 0.012	inactive: 0.003	inactive: 0.012	inactive: -0.002	inactive: -0.027	inactive: 0.072	inactive: -0.031	inactive: 0.005	inactive: 0.047
ITCH (UniProt Q96J02)	inactive: 0.025	inactive: 0.027	inactive: -0.009	inactive: -0.082	inactive: -0.023	inactive: 0.008	inactive: -0.083	inactive: 0.018	inactive: 0.029	inactive: 0.083	inactive: -0.01	inactive: -0.012	inactive: -0.012	inactive: 0.036	inactive: -0.024	inactive: 0.007	inactive: 0.049	inactive: 0.007	inactive: 0.097	inactive: -0.014
IPO7 (UniProt O95373)	inactive: -0.001	inactive: 0.005	inactive: -0.032	inactive: 0.001	inactive: 0.001	inactive: -0.017	inactive: -0.106	inactive: 0.097	inactive: 0.002	inactive: 0.005	inactive: -0.035	inactive: 0.05	inactive: 0.018	inactive: -0.007	inactive: 0.022	inactive: -0.022	inactive: 0.043	inactive: -0.001	inactive: 0.019	inactive: -0.008

Reformatted: entries from further up.
Target,log2 fold change (vemurafenib),log2 fold change [1],log2 fold change (barasertib),log2 fold change [2],log2 fold change (volasertib),log2 fold change [3],log2 fold change [4],log2 fold change [5],log2 fold change (saracatinib),log2 fold change (sotrastaurin),log2 fold change (alvocidib),log2 fold change (Tubastatin A),log2 fold change [6],log2 fold change (defactinib),log2 fold change [7],log2 fold change (encorafenib),log2 fold change [8],log2 fold change (alisertib),log2 fold change [9],log2 fold change (gefitinib)
KBTBD8 (UniProt Q8NFY9),inactive: 0.042,inactive: 0.017,inactive: 0.091,inactive: -0.006,inactive: -0.015,inactive: -0.03,inactive: 0.133,inactive: -0.03,inactive: 0.008,inactive: 0.038,inactive: -0.028,inactive: -0.046,inactive: 0.002,inactive: -0.007,inactive: 0.02,inactive: 0.03,inactive: 0.005,inactive: -0.028,inactive: 0.01,inactive: -0.001
IST1 (UniProt P53990),inactive: 0,inactive: -0.01,inactive: -0.035,inactive: -0.002,inactive: -0.003,inactive: 0.033,inactive: 0.001,inactive: -0.001,inactive: -0.005,inactive: -0.033,inactive: 0.027,inactive: 0.041,inactive: 0.012,inactive: -0.009,inactive: -0.013,inactive: -0.002,inactive: 0,inactive: 0.033,inactive: 0.001,inactive: 0.044
IP6K1 (UniProt Q92551),inactive: 0.013,inactive: 0.031,inactive: -0.172,inactive: -0.01,inactive: -0.114,inactive: 0.077,inactive: -0.113,inactive: 0,inactive: 0.126,inactive: 0.071,inactive: -0.097,inactive: -0.126,inactive: 0.088,inactive: -0.041,inactive: -0.038,inactive: 0,inactive: 0.235,inactive: -0.045,inactive: 0.068,inactive: -0.018
